Test results taken from paper PMC5719087.
Results are given in words; binding and its absence hold for the method and conditions named. In cells and extracts the contact can be indirect. A result given as binding can be weak or reduced; the word gives no strength.

T1: Arabidopsis thaliana dehydrin AtERD10 (Arabidopsis thaliana) (UniProt P42759)
T1 sequence: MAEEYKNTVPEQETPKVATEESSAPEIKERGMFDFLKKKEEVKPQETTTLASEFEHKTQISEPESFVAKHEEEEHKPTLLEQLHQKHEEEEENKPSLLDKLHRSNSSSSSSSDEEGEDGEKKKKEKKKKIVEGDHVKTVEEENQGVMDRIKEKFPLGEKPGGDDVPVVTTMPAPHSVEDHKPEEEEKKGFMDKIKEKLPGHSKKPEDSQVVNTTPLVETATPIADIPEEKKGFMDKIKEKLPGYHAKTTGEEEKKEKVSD

T2: Arabidopsis thaliana dehydrin AtCOR47 (Arabidopsis thaliana) (UniProt P31168)
T2 sequence: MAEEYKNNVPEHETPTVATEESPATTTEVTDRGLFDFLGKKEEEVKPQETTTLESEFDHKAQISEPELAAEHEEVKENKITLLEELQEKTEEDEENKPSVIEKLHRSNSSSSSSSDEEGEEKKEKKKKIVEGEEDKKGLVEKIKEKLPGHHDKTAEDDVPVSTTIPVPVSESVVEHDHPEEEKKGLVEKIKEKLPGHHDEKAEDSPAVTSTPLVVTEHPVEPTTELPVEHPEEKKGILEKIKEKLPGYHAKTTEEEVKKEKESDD

T3: Arabidopsis thaliana dehydrin AtRAB18 (Arabidopsis thaliana) (UniProt P30185)
T3 sequence: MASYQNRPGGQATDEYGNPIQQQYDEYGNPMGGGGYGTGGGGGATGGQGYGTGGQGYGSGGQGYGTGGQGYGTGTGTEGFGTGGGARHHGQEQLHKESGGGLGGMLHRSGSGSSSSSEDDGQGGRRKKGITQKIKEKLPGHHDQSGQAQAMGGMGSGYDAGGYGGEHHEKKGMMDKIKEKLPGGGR

B1: Arabidopsis thaliana dehydrin AtCOR47 (protein, UniProt P31168 1-265)
chain: T2 sequence
B2: Arabidopsis thaliana dehydrin AtERD10 (protein, UniProt P42759 1-260)
chain: T1 sequence
B3: Arabidopsis thaliana dehydrin AtRAB18 (protein, UniProt P30185 1-186)
chain: T3 sequence

Key:
Test in all cases: split reporter; BiFC with pYFN43 and pYFC43 fusions co-infiltrated (with p19) into N. benthamiana abaxial leaf cells by A. tumefaciens; confocal microscopy three days after infiltration
[1] = biological target: T1, Arabidopsis thaliana dehydrin AtERD10 (Arabidopsis thaliana)
[2] = biological target: T2, Arabidopsis thaliana dehydrin AtCOR47 (Arabidopsis thaliana)
[3] = biological target: T3, Arabidopsis thaliana dehydrin AtRAB18 (Arabidopsis thaliana)
[4] = biological target: OpsDHN1 dehydrin from Opuntia streptacantha (Opuntia streptacantha)
[5] = biological target: OpsDHN1ΔHis version (Opuntia streptacantha)

Molecule	binding [1]	binding [2]	binding [3]	binding [4]	binding [5]
OpsDHN1ΔHis version (Opuntia streptacantha)	binds	binds	binds	–	–
OpsDHN1 dehydrin from Opuntia streptacantha	binds	binds	binds	–	–
B1	–	–	–	binds	binds
B2	–	–	–	binds	binds
B3	–	–	–	binds	binds
